US12186310B2 (DAIICHI SANKYO COMPANY, LIMITED, priority 2012, dated 2025)

Experiment: general procedure: solution-phase peptide synthesis; N-hydroxysuccinimide / 1-ethyl-3-(3-dimethylaminopropyl)carbodiimide hydrochlori
Conditions: conjugation step, trifluoroacetate (Example 2 Process 2)

Substance | conjugation yield
N-(tert-butoxycarbonyl)glycylglycyl-L-phenylalanyl-N-(4-{[(1S,9S)-9-ethyl-5-fluoro-9-hydroxy-4-methyl-10,13-dioxo-2,3,9,10,13,15-hexahydro-1H,12H-benzo[de]pyrano[3′,4′:6,7]indolizino[1,2-b]quinolin-1-yl]amino}-4-oxobutyl)glycinamide | 73%
N-(tert-butoxycarbonyl)glycylglycyl-L-phenylalanyl-N-(6-{[(1S,9S)-9-ethyl-5-fluoro-9-hydroxy-4-methyl-10,13-dioxo-2,3,9,10,13,15-hexahydro-1H,12H-benzo[de]pyrano[3′,4′:6,7]indolizino[1,2-b]quinolin-1-yl]amino}-6-oxohexyl)glycinamide | 91%
N-(tert-butoxycarbonyl)glycylglycyl-L-phenylalanyl-N-[2-(2-{[(1S,9S)-9-ethyl-5-fluoro-9-hydroxy-4-methyl-10,13-dioxo-2,3,9,10,13,15-hexahydro-1H,12H-benzo[de]pyrano[3′,4′:6,7]indolizino[1,2-b]quinolin-1-yl]amino}-2-oxoethoxy)ethyl]glycinamide | 95%
N-(tert-butoxycarbonyl)glycylglycyl-L-phenylalanylglycyl-N-[(1S,9S)-9-ethyl-5-fluoro-9-hydroxy-4-methyl-10,13-dioxo-2,3,9,10,13,15-hexahydro-1H, 12H-benzo[de]pyrano[3′,4′:6,7]indolizino[1,2-b]quinolin-1-yl]-β-alaninamide | 87%
N-[6-(2,5-dioxo-2,5-dihydro-1H-pyrrol-1-yl)hexanoyl]glycylglycyl-L-phenylalanyl-N-[(2-{[(1S,9S)-9-ethyl-5-fluoro-9-hydroxy-4-methyl-10,13-dioxo-2,3,9,10,13,15-hexahydro-1H,12H-benzo[de]pyrano[3′,4′:6,7]indolizino[1,2-b]quinolin-1-yl]amino}-2-oxoethoxy)methyl]glycinamide | 82%
N-[19-(2,5-dioxo-2,5-dihydro-1H-pyrrol-1-yl)-17-oxo-4,7,10,13-tetraoxa-16-azanonadecan-1-oyl]glycylglycyl-L-phenylalanylglycyl-N-[(1S,9S)-9-ethyl-5-fluoro-9-hydroxy-4-methyl-10,13-dioxo-2,3,9,10,13,15-hexahydro-1H, 12H-benzo[de]pyrano[3′,4′:6,7]indolizino[1,2-b]quinolin-1-yl]-β-alaninamid | 29%
N-{3-[2-(2-{[3-(2,5-dioxo-2,5-dihydro-1H-pyrrol-1-yl)propanoyl]amino})ethoxy]propanoyl}glycylglycyl-L-phenylalanylglycyl-N-[(1S,9S)-9-ethyl-5-fluoro-9-hydroxy-4-methyl-10,13-dioxo-2,3,9,10,13,15-hexahydro-1H,12H-benzo[de]pyrano[3′,4′:6,7]indolizino[1,2-b]quinolin-1-yl]-O-alaninamide | 31%

Same assay, conditions: coupling step, trifluoroacetate (Example 2 Process 2)

Substance | step yield
N-[6-(2,5-dioxo-2,5-dihydro-1H-pyrrol-1-yl)hexanoyl]glycylglycyl-L-phenylalanyl-N-[(2-{[(1S,9S)-9-ethyl-5-fluoro-9-hydroxy-4-methyl-10,13-dioxo-2,3,9,10,13,15-hexahydro-1H,12H-benzo[de]pyrano[3′,4′:6,7]indolizino[1,2-b]quinolin-1-yl]amino}-2-oxoethoxy)methyl]glycinamide | 31%
β-Alanylglycylglycyl-L-phenylalanyl-glycinamide (Process 2, h-0123) | 67%

Same assay, conditions: late stage modification step, trifluoroacetate

Substance | step yield
Glycylglycyl-L-phenylalanyl-N-(4-{[(1S,9S)-9-ethyl-5-fluoro-9-hydroxy-4-methyl-10,13-dioxo-2,3,9,10,13,15-hexahydro-1H,12H-benzo[de]pyrano[3′,4′:6,7]indolizino[1,2-b]quinolin-1-yl]amino}-4-oxobutyl)glycinamide trifluoroacetate | 99%
Glycylglycyl-L-phenylalanyl-N-[2-(2-{[(1S,9S)-9-ethyl-5-fluoro-9-hydroxy-4-methyl-10,13-dioxo-2,3,9,10,13,15-hexahydro-1H,12H-benzo[de]pyrano[3′,4′:6,7]indolizino[1,2-b]quinolin-1-yl]amino}-2-oxoethoxy)ethyl]glycinamide trifluoroacetate | 92%
Glycylglycyl-L-phenylalanylglycyl-N-[(1S,9S)-9-ethyl-5-fluoro-9-hydroxy-4-methyl-10,13-dioxo-2,3,9,10,13,15-hexahydro-1H,12H-benzo[de]pyrano[3′,4′:6,7]indolizino[1,2-b]quinolin-1-yl]-β-alaninamide trifluoroacetate | 92%

Same assay, conditions: late stage modification step, trifluoroacetate (Example 2 Process 2)

Substance | step yield
Glycylglycyl-L-phenylalanyl-N-[(carboxymethoxy)methyl]glycinamide | 82%
N-(3-sulfanylpropanoyl)glycylglycyl-L-phenylalanyl-N-(4-{[(1S,9S)-9-ethyl-5-fluoro-9-hydroxy-4-methyl-10,13-dioxo-2,3,9,10,13,15-hexahydro-1H,12H-benzo[de]pyrano[3′,4′:6,7]indolizino[1,2-b]quinolin-1-yl]amino}-4-oxobutyl)glycinamide | 66%
N-(bromoacetyl)-β-alanylglycylglycyl-L-phenylalanyl-glycinamide (Process 3, h-0124) | 40%
N-[3-(2,5-dioxo-2,5-dihydro-1H-pyrrol-1-yl)propanoyl]glycylglycyl-L-phenylalanyl-N-(4-{[(1S,9S)-9-ethyl-5-fluoro-9-hydroxy-4-methyl-10,13-dioxo-2,3,9,10,13,15-hexahydro-1H,12H-benzo[de]pyrano[3′,4′:6,7]indolizino[1,2-b]quinolin-1-yl]amino}-4-oxobutyl)glycinamide | 73%
N-[6-(2,5-dioxo-2,5-dihydro-1H-pyrrol-1-yl)hexanoyl]glycylglycyl-L-phenylalanyl-N-(4-{[(1S,9S)-9-ethyl-5-fluoro-9-hydroxy-4-methyl-10,13-dioxo-2,3,9,10,13,15-hexahydro-1H,12H-benzo[de]pyrano[3′,4′:6,7]indolizino[1,2-b]quinolin-1-yl]amino}-4-oxobutyl)glycinamide | 76%
N-[6-(2,5-dioxo-2,5-dihydro-1H-pyrrol-1-yl)hexanoyl]glycylglycyl-L-phenylalanyl-N-[2-(2-{[(1S,9S)-9-ethyl-5-fluoro-9-hydroxy-4-methyl-10,13-dioxo-2,3,9,10,13,15-hexahydro-1H,12H-benzo[de]pyrano[3′,4′:6,7]indolizino[1,2-b]quinolin-1-yl]amino}-2-oxoethoxy)ethyl]glycinamide | 62%
N-[6-(2,5-dioxo-2,5-dihydro-1H-pyrrol-1-yl)hexanoyl]glycylglycyl-L-phenylalanyl-N-[(2-{[(1S,9S)-9-ethyl-5-fluoro-9-hydroxy-4-methyl-10,13-dioxo-2,3,9,10,13,15-hexahydro-1H,12H-benzo[de]pyrano[3′,4′:6,7]indolizino[1,2-b]quinolin-1-yl]amino}-2-oxoethoxy)methyl]glycinamide | 38%
N-[6-(2,5-dioxo-2,5-dihydro-1H-pyrrol-1-yl)hexanoyl]glycylglycyl-L-phenylalanyl-N-[(carboxymethoxy)methyl]glycinamide | 71%
N-{8-[(2,5-dioxopyrrolidin-1-yl)oxy]-8-oxooctanoyl}glycylglycyl-L-phenylalanyl-N-(4-{[(1S,9S)-9-ethyl-5-fluoro-9-hydroxy-4-methyl-10,13-dioxo-2,3,9,10,13,15-hexahydro-1H, 12H-benzo[de]pyrano[3′,4′:6,7]indolizino[1,2-b]quinolin-1-yl]amino}-4-oxobutyl)glycinamide | 71%
